According to patent US10745434B2, “Uridine phosphoramide prodrug, preparation method therefor, and medicinal uses thereof” (priority 2016, dated 2020):
Some entries share one result that the patent states for a list of compounds. At least one compound was matched to its structure with a doubt left.

Test system: HCV GT1b replicons
Test: Anti-HCV replicon activity, HCV GT1b stable transfection replicon cell line (luciferase)
Assay type: cell-based, hepatitis C virus (HCV) genotype (GT) 1b
Details: 3 days, maximum test concentration 20 μM
Method: A hepatitis C virus (HCV) genotype (GT) 1b stable transfection replicon cell line system was used to determine the inhibitory activity of the compounds to the HCV GT1b replicons. In this experiment, the compound 06a (GS-7977) was used as a control compound to monitor the experimental quality.
[drawing 4] 2. Compound dilution: 20 mM mother liquor was prepared by using 100% DMSO, and the compound DMSO mother liquor was diluted and added to a 96-well experiment plate. The final concentration of the DMSO was 0.5%. In in-vitro anti-HCV activity experiments and cytotoxicity experiments, all compounds had the initial concentration of 20 microns, and were diluted by 5 times of dilution. The final concentration of the DMSO of 6 concentrations were 0.5%. 3. […] Cell activity detection: a cell growth fluorescent titration detection reagent was added to each well; after the cells were cultured for 1 hour in the incubator of 37 DEG C. and 5% CO2, a spectrophotometer detection system Envision was used to detect a Fluorescence signal value. The original data, i.e, relative fluorescence units (RFUs), was used for the calculation of the cell toxicity of the compounds. […] Anti-HCV replicon activity detection: a luciferase light-emitting substrate bright-GLO was added to each well, and a chemiluminescence detection system Envision was used for detecting a Luminescence signal value in 5 minutes. […]

Compound: CC(C)OC(=O)C(C)NP(=O)(OCc1ccccc1)OCC1OC(n2ccc(=O)[nH]c2=O)C(C)(F)C1O (mixture of isomers) [Compound 01]
- EC50: < 10 µM
